PubChem BioAssay AID1053208, Peter MacCallum Cancer Centre | 2014

- Screen: 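Synthetic lethal interactions between gene loss and doxorubicin in osteosarcoma cells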 (primary screen)
- Cell system: mouse osteosarcoma cells, early-passage culture from an engineered mouse model of fibroblastic bone tumour
- Reagents: siRNA pool against mouse genes, 40 nM
- Time to read-out: about 120 h (48 h before drug, then 72 h with drug)
- Conditions: doxorubicin 100 nM for 72 h, roughly 30-40% inhibitory dose
- Read-out: 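Viability read as ATP luminescence after 72 h of 100 nM doxorubicin or none, duplicate wells averaged, scaled to non-targeting siRNA, then expressed as robust z-scores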
- Direction: viability z-score with doxorubicin and doxorubicin viability vs non-targeting: higher = more viable cells under doxorubicin; viability z-score without drug: higher = more viable cells with knock-down alone; z-score of drug to no-drug ratio: higher = less drug sensitisation by knock-down
- Rule for the call: 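Called active if knock-down leaves viability unchanged without drug (z within -2 to 2) but lowers it with doxorubicin (z at or under -2)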
Shown is an unselected part of about 17,000 reagents. 788 of them (4.7%) count as active. 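Calls rest on z-score classes alone; an extra cut-off of viability at most 70% of control was not applied to them.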 A number with no mark means an inactive call.

| gene | combined z-score class | viability z-score with doxorubicin | viability z-score without drug | z-score of drug to no-drug ratio | doxorubicin viability vs non-targeting |
| --- | --- | --- | --- | --- | --- |
| Fis1 | no change with or without drug | -1.8 | -0.17 | -1.69 | 0.78 |
| Or11l3 | no change with or without drug | -1.35 | -1.18 | -0.56 | 0.82 |
| Heatr3 | no change with or without drug | -1.35 | -0.17 | -1.24 | 0.82 |
| Cmklr1 | no change with or without drug | 0.34 | 1.18 | -0.34 | 0.97 |
| Or4a75 | no change with or without drug | -1.12 | -0.51 | -0.79 | 0.84 |
| Ss18l1 | no change with or without drug | -0.9 | -0.17 | -0.79 | 0.86 |
| Ubxn2a | no change with or without drug | 0.9 | -0.17 | 1.24 | 1.02 |
| Arhgap11a | no change with or without drug | 0.34 | -0.34 | 0.67 | 0.97 |
| Selplg | no change with or without drug | -0.22 | 0.67 | -0.56 | 0.92 |
| Or52h1 | no change with or without drug | 0 | 0.67 | -0.34 | 0.94 |
| Amelx | no change with or without drug | 1.35 | 0.34 | 1.24 | 1.06 |
| Cdh13 | no change with or without drug | -0.22 | -0.84 | 0.45 | 0.92 |
| Dnajc17 | low cell count with doxorubicin only (active) | -2.7 | 0 | -2.7 | 0.7 |
| Mrpl48 | low cell count with and without drug | -3.15 | -2.87 | -1.46 | 0.66 |
| Prkrip1 | high cell count with and without drug | 2.59 | 2.19 | 1.12 | 1.17 |
| Mpdu1 | low cell count with and without drug | -2.36 | -2.36 | -0.9 | 0.73 |
| Tmem47 | no change with or without drug | 0.56 | 0.51 | 0.34 | 0.99 |
| Slc29a4 | high cell count without drug only | 0.22 | 5.06 | -2.36 | 0.96 |
| Adh7 | no change with or without drug | 0.79 | 1.18 | 0.11 | 1.01 |
| Gab2 | no change with or without drug | 0 | 0.84 | -0.45 | 0.94 |
| Casp2 | no change with or without drug | 0.56 | -0.17 | 0.79 | 0.99 |
| Farsa | no change with or without drug | -0.22 | 0.84 | -0.67 | 0.92 |
| Ddx21 | no change with or without drug | 0.45 | 0.84 | 0 | 0.98 |
| Mrps6 | no change with or without drug | 1.24 | 0 | 1.46 | 1.05 |
| Ccl8 | no change with or without drug | 0.9 | 0.51 | 0.67 | 1.02 |

Part of the list above, limited to “viability z-score without drug”:
Prkrip1: 2.19
Mpdu1: -2.36
Tmem47: 0.51
Slc29a4: 5.06
Adh7: 1.18
Gab2: 0.84
Casp2: -0.17
Farsa: 0.84

The results go on:
| gene | combined z-score class | viability z-score with doxorubicin | viability z-score without drug | z-score of drug to no-drug ratio | doxorubicin viability vs non-targeting |
| --- | --- | --- | --- | --- | --- |
| Tas1r3 | no change with or without drug | -0.45 | 0.51 | -0.67 | 0.9 |
| Sarnp | no change with or without drug | -0.9 | -0.67 | -0.34 | 0.86 |
| Gm5082 | no change with or without drug | -0.22 | 1.35 | -1.01 | 0.92 |
| Glo1 | no change with or without drug | -0.9 | -0.34 | -0.67 | 0.86 |
| Ptpn11 | no change with or without drug | -0.22 | -0.17 | 0 | 0.92 |
| Rex2 | no change with or without drug | 1.24 | 0.51 | 1.01 | 1.05 |
| Ccni | no change with or without drug | -0.67 | -0.17 | -0.45 | 0.88 |
| Pggt1b | no change with or without drug | 0.22 | -0.51 | 0.67 | 0.96 |
| Gpc2 | no change with or without drug | 0.34 | -0.34 | 0.67 | 0.97 |
| Fam98b | no change with or without drug | 1.35 | 0.51 | 1.12 | 1.06 |
| Rgs20 | low cell count without drug only | -1.35 | -4.72 | 2.7 | 0.82 |
| Thop1 | no change with or without drug | 0.34 | -0.51 | 0.79 | 0.97 |
| Gdap2 | no change with or without drug | 0.56 | 1.52 | -0.34 | 0.99 |
| Or9r3 | no change with or without drug | -0.67 | -0.84 | 0 | 0.88 |
| Atic | low cell count with and without drug | -2.25 | -2.19 | -0.9 | 0.74 |
| Tmem41a | no change with or without drug | 0.34 | -0.17 | 0.56 | 0.97 |
| Sufu | high cell count with doxorubicin only | 2.02 | 0.67 | 1.69 | 1.12 |
| H2-M11 | no change with or without drug | 0.9 | 0.17 | 0.9 | 1.02 |
| Rps10 | low cell count with and without drug | -5.62 | -4.89 | -3.48 | 0.44 |
| Tmt1a2 | high cell count with and without drug | 3.15 | 2.19 | 1.69 | 1.22 |
| Ppp2r5a | no change with or without drug | 0.45 | 0.84 | 0 | 0.98 |
| Eid1 | no change with or without drug | -1.57 | 0.67 | -1.91 | 0.8 |
| Prdx5 | no change with or without drug | 0.9 | 1.35 | 0.11 | 1.02 |
| Itih4 | low cell count with doxorubicin only (active) | -2.02 | -1.01 | -1.46 | 0.76 |
| Zbtb33 | no change with or without drug | -0.11 | 0.67 | -0.45 | 0.93 |
